Data as given in PubChem BioAssay AID720505 (Drosophila RNAi Screening Center, 2013)

- Screen: 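Genes needed for store-operated calcium entry in fly cells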 (primary screen)
- System: Drosophila S2R+ cells
- Reagents: long dsRNA against Drosophila genes
- Treatment: thapsigargin (2 µM) in calcium-free buffer to empty internal stores, then 2 mM calcium added back
- Detection: 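Stores emptied by 2 µM thapsigargin without calcium, then 2 mM calcium re-added; fluo-4 fluorescence followed by FLIPR in 384-well plates, per-well averaged endpoint, raw; two screen passes, some wells retested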
- Scale: calcium signal: higher = more calcium entry after store depletion
- Active means: 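Knock-downs counted as hits when calcium entry dropped relative to STIM1 positive and Rho1 negative controls present on each plate; roughly 1500 genes called, with reductions of differing size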
- Meaning of the calls: active = called as lowering calcium entry; inactive = not called
In all, the deposit lists about 20,000 reagents; below is an unselected part of those that have a named target and a result. Of all reagents, about 2,100 (10%) got an active call. 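Raw plate signals without normalisation; calls rest on control-based scores that were not deposited; replicate 2 separates called from uncalled poorly.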 Reagent sequences are not shown. Not stated in the record: the amount of reagent, the time to read-out.

CG5877 [DRSC19963] | calcium signal, replicate 1 = 145; calcium signal, replicate 2 = 105; Call = inactive
Ent1 (Equilibrative nucleoside transporter 1) [DRSC00330] | calcium signal, replicate 1 = 123; calcium signal, replicate 2 = 160; Call = inactive
Amyrel (Amylase related) [DRSC05920] | calcium signal, replicate 1 = 160; calcium signal, replicate 2 = 159; Call = inactive
CG31100 [DRSC14453] | calcium signal, replicate 1 = 115; calcium signal, replicate 2 = 162; Call = inactive
CG31100 [DRSC14455] | calcium signal, replicate 1 = 78.4; calcium signal, replicate 2 = 153; Call = inactive
CG7829 [DRSC16322] | calcium signal, replicate 1 = 172; calcium signal, replicate 2 = 190; Call = inactive
CG30095 [DRSC07175] | calcium signal, replicate 1 = 121; calcium signal, replicate 2 = 127; Call = inactive
CG30480 [DRSC06736] | calcium signal, replicate 1 = 95.2; calcium signal, replicate 2 = 198; Call = inactive
Nnk (Nicknack) [DRSC15274] | calcium signal, replicate 1 = 116; calcium signal, replicate 2 = 134; Call = inactive
Alg3 (ALG3, alpha-1,3- mannosyltransferase) [DRSC04700] | calcium signal, replicate 1 = 134; calcium signal, replicate 2 = 95.8; Call = inactive
CG6839 [DRSC10723] | calcium signal, replicate 1 = 136; calcium signal, replicate 2 = 82.1; Call = inactive
CG13728 [DRSC10056] | calcium signal, replicate 1 = 68.7; calcium signal, replicate 2 = 135; Call = inactive

Part of the list above in another layout:
CG31100 [DRSC14455]
- calcium signal, replicate 1: 78.4
- calcium signal, replicate 2: 153
- Call: inactive

CG7829 [DRSC16322]
- calcium signal, replicate 1: 172
- calcium signal, replicate 2: 190
- Call: inactive
